Results on three molecules are retold here after paper PMC9141838.

Results are given in words; binding and its absence hold for the method and conditions named. In cells and extracts the contact can be indirect. Some binding calls cover weakened binding; strength is not graded here. Where a sequence is shown, tags or fusion partners need not be part of it.

The labels stand for the following.
T1: Flag-tagged USP39 (ubiquitin-specific protease 39) (human) (UniProt Q53GS9)
T1 sequence: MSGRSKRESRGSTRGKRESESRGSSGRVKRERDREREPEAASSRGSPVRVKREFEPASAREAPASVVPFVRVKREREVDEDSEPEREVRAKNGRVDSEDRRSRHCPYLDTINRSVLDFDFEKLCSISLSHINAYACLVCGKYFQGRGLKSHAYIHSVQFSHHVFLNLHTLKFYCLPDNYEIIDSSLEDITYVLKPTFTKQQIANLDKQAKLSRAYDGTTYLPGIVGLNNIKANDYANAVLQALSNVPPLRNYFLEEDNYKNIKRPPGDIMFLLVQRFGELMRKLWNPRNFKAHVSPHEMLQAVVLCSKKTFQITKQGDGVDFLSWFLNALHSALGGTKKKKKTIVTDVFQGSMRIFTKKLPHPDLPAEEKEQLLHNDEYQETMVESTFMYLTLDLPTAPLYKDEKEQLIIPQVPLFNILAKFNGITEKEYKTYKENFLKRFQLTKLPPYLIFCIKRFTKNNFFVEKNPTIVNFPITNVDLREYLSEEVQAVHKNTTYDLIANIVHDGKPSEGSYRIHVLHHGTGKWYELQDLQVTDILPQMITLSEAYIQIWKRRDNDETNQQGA

B1: PRPF3 (protein, UniProt O43395 1-683)
chain: MALSKRELDELKPWIEKTVKRVLGFSEPTVVTAALNCVGKGMDKKKAADHLKPFLDDSTLRFVDKLFEAVEEGRSSRHSKSSSDRSRKRELKEVFGDDSEISKESSGVKKRRIPRFEEVEEEPEVIPGPPSESPGMLTKLQIKQMMEAATRQIEERKKQLSFISPPTPQPKTPSSSQPERLPIGNTIQPSQAATFMNDAIEKARKAAELQARIQAQLALKPGLIGNANMVGLANLHAMGIAPPKVELKDQTKPTPLILDEQGRTVDATGKEIELTHRMPTLKANIRAVKREQFKQQLKEKPSEDMESNTFFDPRVSIAPSQRQRRTFKFHDKGKFEKIAQRLRTKAQLEKLQAEISQAARKTGIHTSTRLALIAPKKELKEGDIPEIEWWDSYIIPNGFDLTEENPKREDYFGITNLVEHPAQLNPPVDNDTPVTLGVYLTKKEQKKLRRQTRREAQKELQEKVRLGLMPPPEPKVRISNLMRVLGTEAVQDPTKVEAHVRAQMAKRQKAHEEANAARKLTAEQRKVKKIKKLKEDISQGVHISVYRVRNLSNPAKKFKIEANAGQLYLTGVVVLHKDVNVVVVEGGPKAQKKFKRLMLHRIKWDEQTSNTKGDDDEESDEEAVKKTNKCVLVWEGTAKDRSFGEMKFKQCPTENMAREHFKKHGAEHYWDLALSESVLESTD
B2: DDX23 (protein, UniProt Q9BUQ8 1-820)
chain: MAGELADKKDRDASPSKEERKRSRTPDRERDRDRDRKSSPSKDRKRHRSRDRRRGGSRSRSRSRSKSAERERRHKERERDKERDRNKKDRDRDKDGHRRDKDRKRSSLSPGRGKDFKSRKDRDSKKDEEDEHGDKKPKAQPLSLEELLAKKKAEEEAEAKPKFLSKAEREAEALKRRQQEVEERQRMLEEERKKRKQFQDLGRKMLEDPQERERRERRERMERETNGNEDEEGRQKIREEKDKSKELHAIKERYLGGIKKRRRTRHLNDRKFVFEWDASEDTSIDYNPLYKERHQVQLLGRGFIAGIDLKQQKREQSRFYGDLMEKRRTLEEKEQEEARLRKLRKKEAKQRWDDRHWSQKKLDEMTDRDWRIFREDYSITTKGGKIPNPIRSWKDSSLPPHILEVIDKCGYKEPTPIQRQAIPIGLQNRDIIGVAETGSGKTAAFLIPLLVWITTLPKIDRIEESDQGPYAIILAPTRELAQQIEEETIKFGKPLGIRTVAVIGGISREDQGFRLRMGCEIVIATPGRLIDVLENRYLVLSRCTYVVLDEADRMIDMGFEPDVQKILEHMPVSNQKPDTDEAEDPEKMLANFESGKHKYRQTVMFTATMPPAVERLARSYLRRPAVVYIGSAGKPHERVEQKVFLMSESEKRKKLLAILEQGFDPPIIIFVNQKKGCDVLAKSLEKMGYNACTLHGGKGQEQREFALSNLKAGAKDILVATDVAGRGIDIQDVSMVVNYDMAKNIEDYIHRIGRTGRAGKSGVAITFLTKEDSAVFYELKQAILESPVSSCPPELANHPDAQHKPGTILTKKRREETIFA
B3: SART1 (protein, UniProt O43290 1-800)
chain: MGSSKKHRGEKEAAGTTAAAGTGGATEQPPRHREHKKHKHRSGGSGGSGGERRKRSRERGGERGSGRRGAEAEARSSTHGRERSQAEPSERRVKREKRDDGYEAAASSKTSSGDASSLSIEETNKLRAKLGLKPLEVNAIKKEAGTKEEPVTADVINPMALRQREELREKLAAAKEKRLLNQKLGKIKTLGEDDPWLDDTAAWIERSRQLQKEKDLAEKRAKLLEEMDQEFGVSTLVEEEFGQRRQDLYSARDLQGLTVEHAIDSFREGETMILTLKDKGVLQEEEDVLVNVNLVDKERAEKNVELRKKKPDYLPYAEDESVDDLAQQKPRSILSKYDEELEGERPHSFRLEQGGTADGLRERELEEIRAKLRLQAQSLSTVGPRLASEYLTPEEMVTFKKTKRRVKKIRKKEKEVVVRADDLLPLGDQTQDGDFGSRLRGRGRRRVSEVEEEKEPVPQPLPSDDTRVENMDISDEEEGGAPPPGSPQVLEEDEAELELQKQLEKGRRLRQLQQLQQLRDSGEKVVEIVKKLESRQRGWEEDEDPERKGAIVFNATSEFCRTLGEIPTYGLAGNREEQEELMDFERDEERSANGGSESDGEENIGWSTVNLDEEKQQQDFSASSTTILDEEPIVNRGLAAALLLCQNKGLLETTVQKVARVKAPNKSLPSAVYCIEDKMAIDDKYSRREEYRGFTQDFKEKDGYKPDVKIEYVDETGRKLTPKEAFRQLSHRFHGKGSGKMKTERRMKKLDEEALLKKMSSSDTPLGTVALLQEKQKAQKTPYIVLSGSGKSMNANTITK

This test concerns the target T1, Flag-tagged USP39 (ubiquitin-specific protease 39) (human). The experiment in a line: co-IP; KYSE30 cells, RIPA lysis buffer; lysate with anti-FLAG M2 affinity gel and anti-FLAG antibody overnight at 4 °C, washed three times with TBST, Western blot.
In the case of B1, the binding entry is on record as “binds”.
Consider B2, for which the binding result is given as “binds”.
The entry for B3 is “binds”.
